Source: publication PMC7073468, “Small RNA‐binding protein RapZ mediates cell envelope precursor sensing and signaling in Escherichia coli” (The EMBO Journal, 2020)
For at least one entry, the source does not settle the construct or the ends of the probe. A weaker result is weaker than the reference pair of the same experiment. Protein sequences can lack the tags named with them. At least one verdict rests on a figure or table, not on a statement of the authors.

Molecular target: T1, Strep-RapZ-CTD (Escherichia coli) (UniProt P0A894)
T1 sequence (looked up): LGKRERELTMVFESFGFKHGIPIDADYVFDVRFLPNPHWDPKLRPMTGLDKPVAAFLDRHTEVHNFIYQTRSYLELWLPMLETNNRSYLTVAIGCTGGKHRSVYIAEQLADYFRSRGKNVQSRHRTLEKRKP
Assay: EMSA
Details: EMSA: 10 mM Tris-HCl, 100 mM KCl, 10 mM MgCl2, pH 6.0 (Fig 6D-F; also pH 7.0 and >=8.0), 1 ug yeast tRNA, 30 C 30 min, native 5.5% PAA gel at 4 C, recombinant protein, residues 153-284, protein details: Strep, label: radiolabeled, probe letters rebuilt from the primers and the genome

GGGAGAAGUGGCUCAUUCACCGACUUAUGUCAGCCCCUUCGGGACGUGCUACAUAAAAUACGAAUGACGCACAACAAGGUGCCUGCCGUCCAACUUCUGAUAUCAGCGUAGCUAUAUCAACCAUCGGGCGAAACGUCGAGUUAGGCACCGCCUU [GlmY* (processed sRNA)]
binding result (GlcN6P, pH 6.0 (responds as well as full-length, GlmY* released)): binds more weakly | binding result (no metabolite, pH 6.0): binds
